{
  "source": "PubChem BioAssay AID602296",
  "about": "(Broad Institute, 2012)",
  "note": "The campaign covered roughly 2,000 compounds. About 190 (9.5%) were called active. The inconclusive results got no clear call from the source; some entries with a clear call stand among them for comparison.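 The calls were made as follows: active = fitted activation curve crossing 40% at a concentration no higher than the sample's top valid tested dose; inconclusive = flat fitted curve at 30% to 70% activation, or poor curve fit; inactive = signal decrease, flat curve within 30%, or the rest.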",
  "data": [
    {"assay": "sustained heat shock response element induction – cell-based, mouse, luciferase, cherry-pick, dose, confirmation (AID 602296);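 also: test compounds applied by themselves with no MG132 co-treatment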", "conditions": "NIH3T3-HGL HSF-1 response element luciferase, 48 h; at 26 µM (top of the series) unless noted", "values": [
      {"smiles": "COc1ccc(N2C(=O)C(Cl)=C(Oc3cccc(OC)c3)C2=O)cc1", "activation": "inconclusive: -95.3%"},
      {"smiles": "CCOC(=O)c1c(N2C(=O)C=CC2=O)sc(C)c1C", "activation": "inconclusive: -103%"},
      {"smiles": "CCCc1ccc(NC(=O)C2CCCN(c3cnccn3)C2)cc1", "note": "(stereo not drawn)", "activation": "inconclusive: 63.3%"},
      {"smiles": "COc1cc(CNC2CCCC2)cc(OC)c1", "activation": "inactive: 2.54%"},
      {"smiles": "Cc1ccc(-c2cc(C(F)F)nc(S(C)(=O)=O)n2)cc1", "activation": "inconclusive: -105%"},
      {"smiles": "Cc1cccc(C)c1OCC(=O)N/N=C/C=C/c1ccco1", "activation": "inconclusive: 58.9%"},
      {"smiles": "CN(c1cccc(NC(=O)CN(c2cccc(Cl)c2)S(=O)(=O)c2ccc(Cl)cc2)c1)S(C)(=O)=O", "activation": "inactive: -55.2%"},
      {"smiles": "O=C(NCc1ccccn1)c1cc(-c2ccc(-c3ccccc3)cc2)nc2ccccc12", "activation": "inconclusive: -88.3%"},
      {"smiles": "CC(=O)c1ccc(N=C2C(=O)Nc3ccccc32)cc1", "activation": "inactive: 10.8%"},
      {"smiles": "CCCCN(C)C(=O)C1CCC(CNS(=O)(=O)c2ccc3c(c2)CC(C)N3C(=O)C2CC2)CC1", "note": "(stereo not drawn)", "activation": "inactive: -24.4%"},
      {"smiles": "CCOc1ccc(C(=O)Nc2ccc3c(c2)OCCO3)cc1", "activation": "inconclusive: -24.9%"},
      {"smiles": "COc1ccc(C(CCNCc2ccccc2)c2ccc(F)cc2)cc1", "note": "(stereo not drawn)", "activation": "inactive: -7.83%"},
      {"smiles": "COc1ccc(NC(=O)COC(=O)/C=C/C(=O)OCC(=O)Nc2ccc(OC)c(Cl)c2)cc1Cl", "activation": "inconclusive: 15.8%"},
      {"smiles": "FC(F)(F)c1cccc(Cn2nnnc2-c2cc(Cl)cc(Cl)c2)c1", "activation": "inconclusive: 19.8%"},
      {"smiles": "CC(=O)COc1cccc2ccc(/C=C/c3ccc(Br)s3)nc12", "activation": "inactive: 1.39%"},
      {"smiles": "O=C1CCN(Cc2ccccc2)N1", "activation": "inconclusive: -9.94%"},
      {"smiles": "O=C(/C=C/NNC(=O)c1ccccc1)c1ccc(Br)cc1", "activation": "inconclusive: -12.5%"},
      {"smiles": "CS(=O)(=O)N(CC(=O)Nc1ccc(CC#N)cc1)c1ccc(C23CC4CC(CC(C4)C2)C3)cc1", "activation": "inconclusive: 0.274%"},
      {"smiles": "O=C(COC(=O)c1ccc(S(=O)(=O)NCc2ccco2)cc1)Nc1ccccc1OC(F)F", "activation": "inactive: 7.76%"},
      {"smiles": "CCS(=O)(=O)N1CCc2nc(-c3ccccc3)sc2C1", "activation": "inconclusive: -26.3%"},
      {"smiles": "CCn1c(CC(C)C)n[nH]c1=S", "activation": "inconclusive: 20.1%"},
      {"smiles": "COc1ccc(C(c2c(O)ccc3ccccc23)N2CCOCC2)c(OC)c1", "note": "(stereo not drawn)", "activation": "inconclusive: -109%"},
      {"smiles": "NC(=O)c1ccccc1OCC(=O)Nc1ccc(Cl)c(Cl)c1", "activation": "inconclusive: -70.9%"},
      {"smiles": "CCOC(=O)C1=C(C)Nc2nc3ccccc3n2C1c1ccncc1", "note": "(stereo not drawn)", "activation": "inactive: 1.53%"},
      {"smiles": "CCOC(=O)C(=Cc1cc(=O)c(OC)co1)C(=O)OCC", "activation": "inconclusive: -101%"},
      {"smiles": "Oc1c(N=Nc2ccccn2)ccc2ccccc12", "activation": "inconclusive: -96.3%"},
      {"smiles": "COc1cc(NC(=O)c2cc([N+](=O)[O-])ccc2Br)ccc1NC(=O)c1ccco1", "activation": "inconclusive: -17.7%"},
      {"smiles": "O=C(/C=C/Sc1ccccc1)c1ccccc1", "activation": "inconclusive: 80.9%"}
    ]}
  ]
}
